For at least one entry, the source does not settle the construct or the ends of the probe. For some assays here: A weaker result is weaker than the reference pair of the same experiment. For some assays here: At least one verdict rests on a figure or table, not on a statement of the authors.

Chains of the proteins cited; added tags and fusions are not shown. A line that says so, or that is headed by a name, gives the form on record, which may keep a tag or linker.
CST(STN1-OBM) W89A,R139L,Y141A (human), one chain, as listed by the source W89A R139L Y141A, chain 2 of 3: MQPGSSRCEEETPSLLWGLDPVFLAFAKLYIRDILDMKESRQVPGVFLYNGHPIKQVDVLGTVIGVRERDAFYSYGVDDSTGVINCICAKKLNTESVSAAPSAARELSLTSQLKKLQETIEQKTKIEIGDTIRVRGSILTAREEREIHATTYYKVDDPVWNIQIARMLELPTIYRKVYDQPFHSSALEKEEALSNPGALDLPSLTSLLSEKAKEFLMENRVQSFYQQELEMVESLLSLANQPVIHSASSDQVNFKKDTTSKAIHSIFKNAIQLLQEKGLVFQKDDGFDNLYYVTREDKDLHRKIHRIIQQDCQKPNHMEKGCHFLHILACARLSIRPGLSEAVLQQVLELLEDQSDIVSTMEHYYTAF
CST(WT) (CTC1-STN1-TEN1) (human), one chain, as listed by the source, chain 2 of 3: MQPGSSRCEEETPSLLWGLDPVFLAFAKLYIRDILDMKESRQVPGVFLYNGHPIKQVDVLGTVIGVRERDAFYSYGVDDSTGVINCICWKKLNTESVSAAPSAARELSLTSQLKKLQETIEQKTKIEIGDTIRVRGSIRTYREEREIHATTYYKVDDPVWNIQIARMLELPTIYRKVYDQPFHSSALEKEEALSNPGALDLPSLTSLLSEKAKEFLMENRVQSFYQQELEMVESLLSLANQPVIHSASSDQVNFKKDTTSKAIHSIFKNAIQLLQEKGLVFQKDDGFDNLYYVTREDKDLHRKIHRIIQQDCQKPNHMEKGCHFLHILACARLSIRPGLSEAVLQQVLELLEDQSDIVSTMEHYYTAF

Data set [1] deals with CST(STN1-OBM) W89A,R139L,Y141A (human). Briefly: EMSA. The note with it: 25 mM Tris pH 8.0, 1 mM DTT, 150 mM NaCl, EMSA 0.1 nM DNA, 30 min RT, filter binding 0.01 nM DNA, 18 h 4 C, crosslinking 20 nM CST, 2 nM DNA, UVA on ice, recombinant protein, protein details: N-terminal FLAG-CTC1, His-STN1-OBM, TEN1 untagged, label: 32P, single-stranded DNA.
Data set [2] has the same test system. Briefly: filter binding. The note with it: 25 mM Tris pH 8.0, 1 mM DTT, 150 mM NaCl, filter binding 0.01 nM DNA, 18 h 4 C, crosslinking 20 nM CST, 2 nM DNA, UVA on ice, recombinant protein, protein details: N-terminal FLAG-CTC1, His-STN1-OBM, TEN1 untagged, label: 32P, single-stranded DNA.
In data set [3] the test system is CST(WT) (CTC1-STN1-TEN1) (human). Briefly: EMSA. Conditions: s4T does not significantly alter binding, 25 mM Tris pH 8.0, 1 mM DTT, 150 mM NaCl, EMSA 0.1 nM DNA, 30 min RT, filter binding 0.01 nM DNA, 18 h 4 C, crosslinking 20 nM CST, 2 nM DNA, UVA on ice, recombinant protein, label: 32P, single-stranded DNA, letters put together from the description. (A gel shift assay detects complexes by their altered migration in electrophoresis.)

Data set [4] deals with CST(STN1-OBM) W89A,R139L,Y141A (human). Briefly: UV crosslinking. The note with it: 25 mM Tris pH 8.0, 1 mM DTT, 150 mM NaCl, filter binding 0.01 nM DNA, 18 h 4 C, crosslinking 20 nM CST, 2 nM DNA, UVA on ice, recombinant protein, protein details: N-terminal FLAG-CTC1, His-STN1-OBM, TEN1 untagged, label: 32P, single-stranded DNA, letters put together from the description.
Where [5] appears, read: 4-thiothymidine at position 3 (third nt from 5' end).

On to “AGCGTATCCGTTCAGTTGAGCGTATCCGTTCAGTTG [NonTel-36]”, for which the binding result is on record as “binds more weakly” in data set [1]; “binds more weakly” in data set [2] (dissociates 1.6-2.6-fold faster than CST(WT) (range for TelG-18 and NonTel-36)).
In the case of GGTTAGGGTTAGGGTTAG [3'-s4T TelG-18], the binding result in data set [1] (s4T does not significantly alter binding, unmodified TelG-18 is weaker than WT, 4-thiothymidine at position 16 (third nt from 3' end), letters put together from the description) is listed as “binds more weakly”; in data set [3] (4-thiothymidine at position 16 (third nt from 3' end)), “binds”; in data set [4] (STN1 crosslink reduced vs WT, 4-thiothymidine at position 16 (third nt from 3' end)), “binds more weakly”.
Turning to GGTTAGGGTTAGGGTTAG [5'-s4T TelG-18], the binding result in data set [1] (s4T does not significantly alter binding, unmodified TelG-18 is weaker than WT, 4-thiothymidine at position 3 (third nt from 5' end), letters put together from the description) is “binds more weakly”; in data set [3] (setting [5]) it was “binds”.
Turning to GGTTAGGGTTAGGGTTAG [TelG-18], the binding result is reported as “binds more weakly” in data set [1] (0.5-20 nM CST) and “binds more weakly” in data set [2] (4 C, 18 h).
For the sequence “GGTTAGGGTTAGGGTTAGGGTTAGGGTTAGGGTTAGGGTTAGGGTTAG [3'-s4T TelG-48]”, the binding result in data set [1] (s4T does not significantly alter binding, 4-thiothymidine at position 46 (third nt from 3' end), letters put together from the description) was “binds”; in data set [3] (4-thiothymidine at position 46 (third nt from 3' end)), “binds”; in data set [4] (STN1 and TEN1 crosslinks reduced, CTC1 crosslink still formed, 4-thiothymidine at position 46 (third nt from 3' end)), “binds more weakly”.
For the sequence “GGTTAGGGTTAGGGTTAGGGTTAGGGTTAGGGTTAGGGTTAGGGTTAG [5'-s4T TelG-48]”, the binding result in data set [1] (s4T does not significantly alter binding, 4-thiothymidine at position 3 (third nt from 5' end), letters put together from the description) was “binds”; in data set [3] (setting [5]) it was “binds”.
